{"source": "patent US20250134889A1", "about": "“TARGETING IRE1 KINASE AND FMRP FOR PROPHYLAXIS, MANAGEMENT AND TREATMENT OF ATHEROSCLEROSIS” (CEDARS-SINAI MEDICAL CENTER, priority 2022, published 2025)", "system": "atherosclerosis in Apoe-/- mice", "experiment": "Atherosclerosis in Apoe-/- mice fed WD", "format": "in vivo, mouse", "details": "last 4 weeks of 12 weeks WD", "method": "FIGS. 6A-6J depict that IRE1 kinase inhibition alleviates atherosclerosis. (Data are mean±SEM; Mann Whitney U test. * P≤0.05, ** P≤0.01, *** P≤0.001.) • 6A. Atherosclerosis experiment design in Apoe^−/− mice were fed with WD (12 weeks) and injected with vehicle (DMSO) or AMG-18 (30 mg/kg) once a day in the last 4 weeks of WD. • 6B. Lesion area calculated from en face aorta, stained with ORO (n=5; Scale bar=5 mm). • 6C. Total plaque area was calculated from H&E-stained aortic root sections (n=5; Scale bar=300 μm). • 6D. Foam cell area was calculated from ORO-stained aortic root sections (n=5; Scale bar=300 μm). • 6E. Necrotic area was calculated from H&E-stained aortic root sections (n=5; Scale bar=100 μm). • 6F. Atherosclerosis experiment design in Apoe^−/− mice were fed with WD (12 weeks) and injected with vehicle (DMSO) or AMG-18 (30 mg/kg) twice a day in the last 4 weeks of WD. • 6G. Lesion area calculated from en face aorta, stained with ORO (n=6; Scale bar=5 mm). • 6H. Total plaque area was calculated from H&E-stained aortic root sections (n=5; Scale bar=300 μm). • 6I. Foam cell area was calculated from ORO-stained aortic root sections (n=5; Scale bar=300 μm). • 6J. Necrotic area was calculated from H&E-stained aortic root sections (n=5; Scale bar=100 μm).\nFIGS. 6K-6T depict: (Data are mean±SEM; Mann Whitney U test. * P≤0.05, ** P≤0.01, *** P≤0.001.) • 6K. The ratio of mouse weight at the beginning of the experiment over the weight at the end of the experiment in FIG. 6A (n=5). • 6L-6N. Plasma measurements for (6L) glucose (n=5) and (6M) cholesterol (n=5) from mice in FIG. 6A. (6N) Abundance of B cells, T cells and monocytes in the peripheral blood as % of total CD45+ cells from the vehicle (DMSO) or AMG-18 (30 mg/kg) once a day injected mice in FIG. 6A (n=5). • 6O. Protein lysates of liver from mice in FIG. 6A. Proteins were analyzed by western blotting using specific antibodies for pIRE1 and β-Actin (n=5). • 6P. The ratio of mouse weight at the beginning of the experiment over the weight at the end of the experiment in FIG. 6F (n=6). • 6Q-6R. Plasma measurements for (6Q) glucose (n=6) and (6R) cholesterol (n=6) from FIG. 6F. • 6S-6T. Protein lysates of (6S) thioglycolate-elicited PM and (6T) liver from mice in FIG. 6F. Proteins were analyzed by western blotting using specific antibodies for pIRE1 and β-Actin (n=6).\nMice studies and treatments: C57BL/6 (WT, Fmr1^+/+), Fmr1^−/− and Apolipoprotein E-deficient (Apoe^−/−) mice were purchased from Jackson Laboratory. IRE1 conditional knock out (Ire1α^flox/flox) mice were a kind gift from Dr. Takao Iwawaki (Kanazawa Medical University, Japan) and characterized before (Iwawaki et al, 2009). […] Fmr1 conditional knock out (Fmr1^flox/flox) mice were a kind gift from dr. David Nelson. […]"}
{"smiles": "Cc1ccc2c(NS(=O)(=O)c3ccccc3Cl)cccc2c1Oc1ncccc1-c1ccnc(N[C@H]2CCCNC2)n1", "note": "[AMG-18]", "values": [{"measurement": "TPC (total plasma cholesterol)", "setting": "30 mg/kg once daily", "result": "no significant differences"}, {"measurement": "plasma glucose", "setting": "30 mg/kg once daily", "result": "no significant differences"}, {"measurement": "TPC (total plasma cholesterol)", "setting": "30 mg/kg twice daily", "result": "decrease"}, {"measurement": "plasma glucose levels", "setting": "30 mg/kg twice daily", "result": "no significant differences"}]}
